Library screening results

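Whole-cell assay for inhibitors of Mycobacterium tuberculosis growth, labelled Cornell in the record; the read-out is not stated. The concentration is filed as 10 mM, unlikely as a test dose, so the dose is not known. Higher means stronger inhibition (inferred from two other growth screens of the library). Of about 53,000 compounds tested this way, about 900 (1.7%) reached 50% or more in at least one test.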

Results are given as percent effect.
The record does not define 0% and 100%; most values in the screen are far below 50% and negative numbers occur (in some assays of this library far below -100).
Compounds were drawn at random from those tested, without regard to their results.

| Compound | effect |
|---|---|
| `CSCC[C@@H](CO)NC(=O)c1sc(-c2ccccc2Cl)nc1C` | -7.771% |
| `O=C(Nc1ccc2c(c1)OCO2)N1CCN(CCn2ccnc2)CC1` | -27.6% |
| `CC(Cc1cccc(Cl)c1)NC(=O)Nc1cnn(CC(N)=O)c1` (stereo unspecified) | -23.18% |
| `O=c1c(NCCNCCO)c(N2CCN(c3ccc(F)cc3)CC2)c1=O` | 22.49% |
| `CCN1CC2(CCCCN2C(=O)c2ccsc2)CC1=O` (stereo unspecified) | -8.789% |
| `CC(C)NC(=O)Cn1ccc2c(Cl)cccc21` | 18.88% |
| `Cc1noc(C)c1CS(=O)(=O)CC(=O)NCCc1ccccc1` | 4.116% |
| `O=C(O)C(F)(F)F.[H][C@@]12CN(C(=O)c3ccco3)C[C@]1([H])C(=O)N(Cc1csc(C)n1)C2` | 4.213% |
| `CN(CC(=O)N(C)C1CCCCC1)Cc1nc2c(cnn2C)c(=O)[nH]1` | 1.062% |
| `CC(CCc1ccccc1F)C(=O)NS(C)(=O)=O` (stereo unspecified) | 31.19% |
| `O=C(O)C(F)(F)F.c1cncc(N2CCC3(CCCN(c4ccncc4)C3)CC2)c1` | -50.73% |
| `O=C(O)C(F)(F)F.[H][C@@]12CN(Cc3cccs3)CCO[C@]1([H])CN(S(=O)(=O)CCC)C2` | 12.16% |
| `O=C(O)C(F)(F)F.[H][C@@]12COC[C@]1([H])[C@@H](OCC1CCOCC1)CN2Cc1cc(C)c(C)o1` | 6.655% |
| `CC(C)(C)c1nnc(CNc2cc(F)ccc2OCC2CCCO2)o1` (stereo unspecified) | -39.87% |
| `CCOCC1CCN(C(=O)C(c2ccc(F)cc2)N(C)C)CC1` (stereo unspecified) | -17.11% |
| `COc1ccc(-c2cnc3c(c2)CN(C2CC2)C(=O)CCN3)cc1` | 24.87% |
| `COc1ccc(CNCc2ccnc(N3CCOCC3)c2)cc1OC` | -27.8% |
| `CC(C(=O)NN1CCOCC1)n1nc(C(F)(F)F)c(Cl)c1C1CC1` (stereo unspecified) | -9.721% |
| `[H][C@]12CC[C@]([H])(CN(C(=O)c3ccccn3)C1)N(C(=O)CCc1cccs1)C2` | -18.3% |
| `[H][C@@]12CN(CCCc3ccccc3)C[C@]1([H])OCC(=O)N2CCOC` | -5.449% |
| `Cn1c(N2CCOCC2)nc2cc(C(=O)NCC(F)(F)F)ccc21` | 12.55% |
| `CCCc1n[nH]c(C2CN(C(=O)CCn3nc(C)cc3C)CCO2)n1` (stereo unspecified) | 7.548% |
| `O=C(c1cccc(F)c1)N(CCCO)S(=O)(=O)c1cccs1` | 15.02% |
| `COCCC(=O)N1CCC2(CCN(Cc3cccc(F)c3)CC2)C1.O=C(O)C(F)(F)F` | -28.98% |
| `CO[C@H]1COCCN(C(=O)c2ccc(C(F)(F)F)cc2)C1` | 4.501% |
| `COCCN(Cc1nccs1)C(=O)c1cc(-c2ccc(C)s2)n[nH]1` | 25.8% |
| `CN1CCC(N(Cc2ccco2)S(=O)(=O)c2ccc(Br)cc2Cl)CC1` | 11.19% |
| `O=C(CN1CCCC1=O)NCc1cccnc1Oc1ccc(F)c(F)c1` | 8.37% |
| `COCCNC(=O)Cn1cc2c(n1)c(C)nn2C` | -21.92% |
| `COCCCC1(CO)CCCN(Cc2cccc(C#N)c2)C1` (stereo unspecified) | 1.505% |
| `CN(C)c1ncccc1CNC(=O)NCc1ccco1` | -4.249% |
| `CCN(CC1CN(CC2CCC2)CCO1)c1cccnn1` (stereo unspecified) | 3.819% |
| `O=C(CCC(=O)N1CCC(Oc2ncccc2Br)CC1)c1ccccc1` | 95.35% |
| `Cn1c(C(=O)N2CCOCC2)nc2c1CCN(c1ncccn1)C2` | -7.182% |
| `CC(C)CN1CCN(C(=O)c2ccn(C)c(=O)c2)CC1` | 21.8% |
| `COc1ccc2[nH]cc(C3CCN(CCC(N)=O)CC3)c2c1` | 27.6% |
| `O=C(NCc1cccnc1)C1=NOC2(CCN(C3CCOCC3)C2)C1` (stereo unspecified) | -16.88% |
| `COCC1c2c(cnn2C)CCN1Cc1ccc(F)cc1.O=C(O)C(F)(F)F.O=C(O)C(F)(F)F` (stereo unspecified) | 21.59% |
| `O=C(O)C(F)(F)F.O=C(O)C(F)(F)F.O=C(c1cccnc1)N1CCn2nnc(COc3cccnc3)c2C1` | 14.74% |
| `COc1cccc(C(=O)N2C[C@@H](CN(C)CCO)[C@@H](CO)C2)c1C` | -6.864% |
| `[H][C@]12CCC(=O)N[C@@]1(C)CCCCN2Cc1ccc(F)c(OC)c1` | 47.98% |
| `CCn1nc(C)c(-c2cncn2Cc2ccccc2CN(C)C)c1C.Cl` | 18.66% |
| `CCn1nc2c(cc1=O)CN(CC(=O)Nc1cc(C(C)C)no1)CC2` | -15.93% |
| `CN(Cc1ccncc1)C(=O)Nc1cnn(CC(N)=O)c1` | 4.894% |
| `COCc1cccc(CNC(=O)CNc2ccccc2C(C)=O)c1` | 19.75% |
| `CC(=O)Nc1nc(C(=O)N2CCCC2c2noc(C)n2)cs1` (stereo unspecified) | -1.104% |
| `O=C(COCC(F)(F)C(F)F)N1CCC2(CCCN(CCO)C2=O)C1` (stereo unspecified) | -3.991% |
| `CN1CCN(S(=O)(=O)NCC2COc3ccccc3C2)CC1` (stereo unspecified) | -27.91% |
| `[H][C@@]12COC[C@@H](C(=O)Nc3cnccn3)[C@]1([H])CN(c1ncc(F)cn1)C2` | 22.24% |
| `O=C1CC(c2cccnc2)C2(CCN(C(=O)c3ccncc3)CC2)N1` (stereo unspecified) | 2.414% |
| `CSCc1cc(C(=O)NC2(C#N)CC2)ccc1F` | 3.019% |
| `[H][C@@]12CCN(C(=O)N(C)C)[C@]1([H])CC[C@H](C(=O)N(C)C)O2` | 6.855% |
| `CCc1nnc2n1CCN(C(=O)c1cnc(C3CC3)s1)C2` | -4.916% |
| `Cc1n[nH]c(C2CN(C(=O)c3ccn(C)c(=O)c3)CCO2)n1` (stereo unspecified) | -8.878% |
| `CN1CC(C(=O)NCc2cccnc2OCC(F)(F)F)CC1=O` (stereo unspecified) | -52.58% |
| `COCC1CC2(CCN(C(=O)c3cccc(C)c3)CC2)CO1` (stereo unspecified) | 7.296% |
| `COC[C@]1(O)CCN(c2cc(N3CCOCC3)ncn2)CC1(C)C` | -5.206% |
| `CSCc1nc(C(C)(C)NC(=O)OC(C)(C)C)no1` | 1.941% |
| `Cc1c[nH]cc1C(=O)N1CCN(Cc2nc(C(C)C)no2)CC1` | 26.55% |
| `O=C(COc1cccc(Br)c1)N1CCOCC1c1ncon1` (stereo unspecified) | 9.219% |
| `Cc1cccc(-n2cc(C(=O)N3CCn4c(C)nnc4C3)nn2)c1` | 6.053% |
| `COc1cccc(CCC2CCCN(C(=O)c3ccc(=O)n(C)n3)C2)c1` (stereo unspecified) | -8.827% |
| `CC(=O)Nc1nc(C2CN(C(=O)C3CCC3)C2)cs1` | 1.116% |
| `COc1ccc(F)cc1C[S+]([O-])CC(=O)NCc1ccccc1` (stereo unspecified) | 19.46% |
| `Cc1ccc(NC(=O)Nc2c(O)oc3ccccc3c2=O)cc1` | -15.88% |
| `NC(=O)C1CN(C(=O)Nc2ccccc2N2CCCCCC2)CCO1` (stereo unspecified) | 3.604% |
| `CC1CCc2nc(O)c(C(=O)NCCc3cccs3)cc2C1` (stereo unspecified) | -18.16% |
| `O=C(c1ccccc1-c1nnn[nH]1)N1CCOC(C(F)(F)F)C1` (stereo unspecified) | -19.08% |
| `Fc1ccc(N2CCC3(CC2)CC(OCc2cccnc2)CO3)cc1.O=C(O)C(F)(F)F` (stereo unspecified) | 62.76% |
| `O=S(=O)(NCC1(O)CCOc2ccccc21)c1ccccc1F` (stereo unspecified) | 14.1% |
| `CCN(C)C[C@@H]1CN(Cc2cccc(Cl)c2)C[C@@H]1CO` | -6.882% |
| `CC(=O)N1CCC(Cc2cnc(-c3c(C)nn(C)c3C)cn2)CC1` | -19.5% |
| `Fc1ccc(C(CNc2ccncn2)N2CCCCC2)cc1` (stereo unspecified) | 13.15% |
| `CC(C)NC(=O)N1CCN(C(=O)C2CCOCC2)CC2(CNC(=O)C2)C1` (stereo unspecified) | 19.63% |
| `N#Cc1cnc2c(F)cc(F)cc2c1NC1CCN(CC(N)=O)CC1` | 30.77% |
| `O=C(CC1CCCCC1)N1CCC(O)(C(F)(F)F)C1` (stereo unspecified) | 48.74% |
| `O=C(O)C(F)(F)F.[H][C@@]12CN(C(=O)C3CC3)C[C@]1([H])OCCN2CC(=O)NC` | -8.399% |
| `CCn1cnnc1C1CCN(C(=O)c2cccc(C)c2C)CC1` | -30.53% |
| `CN(C)CC(=O)N1CCC2(CC1)COCCN(Cc1ccncc1)C2` | 13.03% |
| `Cc1nc(C)n(CC2CCCN2c2ncnc3c2CCC3)n1` (stereo unspecified) | 6.849% |
| `CC(C)n1cnc(-c2nc(C(=O)N3CCN(C)CC3)c3ccccn23)c1` | 17.58% |
| `CCc1ccc(CNC(=O)CCNS(=O)(=O)c2cn(C)c(C)n2)s1` | -14.51% |
| `CCS(=O)(=O)N1CCCc2ccc(NC(=O)Cc3ccc(F)cc3)cc21` | 0.6683% |
| `O=C(O)c1cn2cc(C(F)(F)F)ccc2n1` | -4.658% |
| `Cl.NC(Cc1nc(-c2ccccc2)no1)c1ccccc1` (stereo unspecified) | 19.6% |
| `O[C@H]1[C@H](NCCc2cnccn2)c2ccccc2C12CCNCC2` | 24.98% |
| `Cc1nc(-c2cccc(N3CCC(N4CCCC(C#N)C4)CC3)c2)cs1` (stereo unspecified) | 11.96% |
| `c1cnnc(N2CCCC2CNc2ncnc3ccsc23)c1` (stereo unspecified) | -18.68% |
| `CCc1nnc(CN(CC)C(=O)CCc2scnc2C)o1` | -11.02% |
| `CN(C)c1ncccc1CNC(=O)N1CCCC1c1ccsc1` (stereo unspecified) | -4.546% |

Repeated from the top, 8 entries:

Compound,effect
CSCC[C@@H](CO)NC(=O)c1sc(-c2ccccc2Cl)nc1C,-7.771%
O=C(Nc1ccc2c(c1)OCO2)N1CCN(CCn2ccnc2)CC1,-27.6%
CC(Cc1cccc(Cl)c1)NC(=O)Nc1cnn(CC(N)=O)c1 (stereo unspecified),-23.18%
O=c1c(NCCNCCO)c(N2CCN(c3ccc(F)cc3)CC2)c1=O,22.49%
CCN1CC2(CCCCN2C(=O)c2ccsc2)CC1=O (stereo unspecified),-8.789%
CC(C)NC(=O)Cn1ccc2c(Cl)cccc21,18.88%
Cc1noc(C)c1CS(=O)(=O)CC(=O)NCCc1ccccc1,4.116%
O=C(O)C(F)(F)F.[H][C@@]12CN(C(=O)c3ccco3)C[C@]1([H])C(=O)N(Cc1csc(C)n1)C2,4.213%

Source: ChEMBL document CHEMBL3988442, “University of Dundee, Small-Polar-MMV Screening Library” (2021).